Literature values as cited in patent US20150224157A1, “PROCESS FOR THE PREPARATION OF HERBAL EXTRACT OF CASSIA TORA LEAVES FOR TREATING ANXIETY DISORDERS” (priority 2009, published 2015).
For at least one compound, name, drawing or mass did not settle the structure. Some entries share one result that the patent states for a list of compounds. Some ranges recur; such a range may be that of the whole group of compounds.

Experiments:
[1] = system: methicillin-resistant Staphylococcus aureus; conditions: four strains of methicillin-resistant Staphylococcus aureus; cited from earlier work
IFN-gamma secretion = conditions: 10 mu gm/mL (35 M); cited from earlier work
[2] = system: human peripheral blood mononuclear cell (PBMC); conditions: 10 mu gm/mL (35 M); cited from earlier work

Structure (SMILES) | minimum inhibitory concentration [1] | IFN-gamma secretion, % of control (IFN-gamma secretion) | stimulation index (SI), proliferation of resting human PBMC [2]
O=C1c2cccc(O)c2C(=O)c2c(O)cc(CO)cc21 [aloe-emodin] | 2-64 mu g/ml | – | –
Cc1cc(O)c2c(c1)C(=O)c1cc(O)cc(O)c1C2=O [emodin, 1,3,8-trihydroxy-6-methyl-9,10-anthracenedione] | 2-64 mu g/ml | – | –
O=C(O)c1cc(O)c2c(c1)C(=O)c1cccc(O)c1C2=O [rhein] | 2-64 mu g/ml | 74.5 % of control | 1.53
